Among the data in article PMC10759229 are binding values, retold here.

Chains of the proteins cited; added tags and fusions are not shown. Lines headed by an entry give the natural chain unless they say otherwise; changes in a name come on top.
UniProt Q9NQU5: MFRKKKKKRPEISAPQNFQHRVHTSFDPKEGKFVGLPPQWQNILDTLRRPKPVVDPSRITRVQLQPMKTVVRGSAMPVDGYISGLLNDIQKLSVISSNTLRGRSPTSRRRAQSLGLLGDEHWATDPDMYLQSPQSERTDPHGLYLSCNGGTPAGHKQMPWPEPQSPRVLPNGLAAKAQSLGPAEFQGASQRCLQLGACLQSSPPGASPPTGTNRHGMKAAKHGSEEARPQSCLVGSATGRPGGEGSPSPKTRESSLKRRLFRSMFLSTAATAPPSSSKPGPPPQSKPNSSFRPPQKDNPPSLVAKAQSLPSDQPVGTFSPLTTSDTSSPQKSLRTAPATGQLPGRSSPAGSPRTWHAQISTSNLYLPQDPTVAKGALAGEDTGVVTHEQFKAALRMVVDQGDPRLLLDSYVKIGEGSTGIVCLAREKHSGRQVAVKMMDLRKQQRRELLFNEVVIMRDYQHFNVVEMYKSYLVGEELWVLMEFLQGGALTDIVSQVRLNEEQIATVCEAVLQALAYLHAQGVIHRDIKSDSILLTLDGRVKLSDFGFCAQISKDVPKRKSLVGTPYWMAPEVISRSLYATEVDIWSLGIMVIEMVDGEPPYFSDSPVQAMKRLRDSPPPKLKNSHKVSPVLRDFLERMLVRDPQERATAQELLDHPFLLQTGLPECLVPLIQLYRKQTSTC

The target in experiment [1] is T1, 3xFlag-PPP2R2C wild-type (PP2A regulatory subunit B, gamma isoform a) (UniProt Q9Y2T4).
T1 sequence: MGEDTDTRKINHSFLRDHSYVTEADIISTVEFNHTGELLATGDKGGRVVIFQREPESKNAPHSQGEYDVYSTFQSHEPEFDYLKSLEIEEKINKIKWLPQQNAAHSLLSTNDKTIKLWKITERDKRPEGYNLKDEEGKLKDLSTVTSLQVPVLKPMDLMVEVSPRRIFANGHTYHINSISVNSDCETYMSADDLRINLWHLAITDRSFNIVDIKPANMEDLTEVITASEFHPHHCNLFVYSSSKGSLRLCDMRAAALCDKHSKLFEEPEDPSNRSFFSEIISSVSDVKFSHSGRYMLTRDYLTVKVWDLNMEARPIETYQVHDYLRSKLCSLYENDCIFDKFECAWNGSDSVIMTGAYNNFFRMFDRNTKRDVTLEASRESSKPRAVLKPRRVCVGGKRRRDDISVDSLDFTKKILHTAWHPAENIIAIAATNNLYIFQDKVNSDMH
Nature of the experiment: co-IP; HEK293T cells co-transfected with 3xFlag-PPP2R2C and 2xMyc-PAK6; lysate incubated with anti-Flag M2 agarose or GFP-TrapA beads for 2 h or overnight at 4°C; western blot (Figures 1B and 3D).

The target in experiment [2] is T2, 3xFlag-PPP2R2C S381A (phosphodeficient) (UniProt Q9Y2T4).
T2 sequence: T1 sequence with S381A
The experiment is described as above.

Numbering of substitutions follows the chain as printed. Results are given in words; binding and its absence hold for the method and conditions named. In cells and extracts the contact can be indirect. Some results given as binding are weak or reduced against the parent protein; the word gives no strength. Tags and fused reporters may be left off the sequences shown.

Regarding “2xMyc-PAK6 S531N (constitutively active) (from UniProt Q9NQU5 1-681) (enzyme)”, the binding result in experiment [1] and in experiment [2] was “binds” each time.
For “2xMyc-PAK6 WT (p21-activated kinase 6) (from UniProt Q9NQU5 1-681) (enzyme)”, the binding entry in experiment [1] is “binds”.
